Our source for the Hit score values is ChEMBL document CHEMBL4303122, “Identification of potential treatments for COVID-19 through artificial intelligence-enabled phenomic analysis of human cells infected with SARS-CoV-2” (2020).

The full ranking holds about 1,600 compounds; the median of “Hit score” is about 0.13, and the highest 2% start at about 0.46. Some of the results follow.

This assay has as its system SARS-CoV-2. Put plainly: Antiviral activity against SARS-CoV-2 (USA-WA1/2020 strain) measured by imaging in HRCE cells at MOI 0.4 after 96 hrs (reported as hit score from 0-1 for on-disease vs off-disease activity: scores >0.6 considered hits). The assay is classed as functional, Homo sapiens.
As for `CC(C)NC1CCn2c(=O)[nH]c3cccc(c32)C1O` (centres undefined) [ZILPATEROL], the Hit score is listed as -0.2417.

`NC(=O)c1ncn([C@@H]2O[C@H](CO)[C@@H](O)[C@H]2O)n1` [RIBAVIRIN]: the Hit score is reported as 0.2922.

Consider `CNS(=O)(=O)Cc1ccc2[nH]cc(CCN(C)C)c2c1`, for which the Hit score came out at 0.2609.

The compound `O=C(CCCl)NCc1ccccc1` [BECLAMIDE] returned a Hit score of 0.1071.

The compound `COc1ccc(-c2nc3cc(C4=NNC(=O)CC4C)ccc3[nH]2)cc1` (centres undefined) [PIMOBENDAN] registered a Hit score of 0.05674.

For `CCOc1ccc(CC2=NCCc3cc(OCC)c(OCC)cc32)cc1OCC`, the Hit score stood at 0.1332.

Take `COc1cc(C(=O)NS(=O)(=O)c2ccccc2C)ccc1Cc1cn(C)c2ccc(NC(=O)OC3CCCC3)cc12` [ZAFIRLUKAST]: the Hit score amounted to 0.1738.

In turn, `Cc1cc(C2CCCCC2)n(O)c(=O)c1` [CICLOPIROX] displayed a Hit score of 0.151.

The compound `CC1=C(C(=O)OC(C)C)C(c2cccc([N+](=O)[O-])c2)C(C(=O)OC2CN(C(c3ccccc3)c3ccccc3)C2)=C(N)N1` (centres undefined) [AZELNIDIPINE] had a Hit score of 0.0227.

Turning to `CCCCCCCCCCCCC/C=C/[C@@H](O)[C@H](CO)NC(C)=O`, the Hit score stood at 0.1025.

On to `CCOc1cc([C@@H](CS(C)(=O)=O)N2C(=O)c3cccc(NC(C)=O)c3C2=O)ccc1OC`, for which the Hit score is recorded as 0.2459.

Turning to `NC(=O)CN1CC(c2ccccc2)CC1=O` (centres undefined), the Hit score came to 0.1266.

`NS(=O)(=O)c1cc(C(=O)O)c(NCc2ccco2)cc1Cl` [FUROSEMIDE] yielded a Hit score of 0.07954.

Compound `Oc1ccc(Cl)cc1Cc1cc(Cl)ccc1O` [DICHLOROPHEN] gave a Hit score of 0.1527.

Turning to `CC1(C)O[C@@H]2C[C@H]3[C@@H]4CCC5=CC(=O)C=C[C@]5(C)[C@@]4(F)[C@@H](O)C[C@]3(C)[C@]2(C(=O)CO)O1` [TRIAMCINOLONE ACETONIDE], the Hit score is listed as -0.1503.

For the compound `COc1ccc(Cc2cnc(N)nc2N)cc1OC` [DIAVERIDINE], the Hit score worked out at 0.1965.

For the compound `CN(C)C(=O)COC(=O)Cc1ccc(OC(=O)c2ccc(NC(=N)N)cc2)cc1` [CAMOSTAT], the Hit score is on record as 0.1639.

The compound `C[C@@H]1C[C@H]2[C@@H]3CCC4=CC(=O)C=C[C@]4(C)[C@@]3(F)[C@@H](O)C[C@]2(C)[C@H]1C(=O)CO` [DESOXIMETASONE] showed a Hit score of -0.3284.

Compound `CN[C@H]1C(=O)N[C@@H]2Cc3ccc(cc3)Oc3cc4cc(c3O[C@@H]3O[C@H](C(=O)O)[C@@H](O)[C@H](O)[C@H]3NC(=O)CCCCCCCCC(C)C)Oc3ccc(cc3Cl)[C@@H](O)[C@@H]3NC(=O)[C@H](NC(=O)[C@@H]4NC(=O)[C@@H](NC2=O)c2cc(cc(O)c2Cl)Oc2cc1ccc2O)c1ccc(O)c(c1)-c1c(O[C@H]2O[C@H](CO)[C@@H](O)[C@H](O)[C@@H]2O)cc(O)cc1[C@@H](C(=O)NCCCN(C)C)NC3=O` [DALBAVANCIN] had a Hit score of 0.334.
